Reference: the supplement of paper PMC4604168 (melanoma cell lines)
Some of the results follow. Repeats are few or missing, and single values can be far off.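 Cells were imaged in 1,536-well plates, and nuclei stained with an antibody against cleaved PARP were counted against all DNA-stained nuclei to give the apoptosis fraction. Screening doses were chosen to leave most cells alive, and resting and induced cleaved-PARP levels differ strongly between cell lines.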

What was measured:
Assay in all cases: cleaved PARP positive nuclei fraction relative to DMSO control; melanoma cells; higher = more apoptosis
Conditions in all cases: library dose: low library concentration; 72 h
501Mel = tested on: 501Mel
A101D = tested on: A101D
A2058 = tested on: A2058
C32 = tested on: C32
CBRC008 = tested on: CBRC008 (line from a melanoma biopsy)
CBRC014 = tested on: CBRC014 (line from a melanoma biopsy)
CBRC016 = tested on: CBRC016 (line from a melanoma biopsy)
CBRC017 = tested on: CBRC017 (line from a melanoma biopsy)

CC(=O)O[C@@]12CO[C@@H]1C[C@H](O)[C@@]1(C)C(=O)[C@H](O)C3=C(C)[C@@H](OC(=O)[C@H](O)[C@@H](NC(=O)OC(C)(C)C)c4ccccc4)C[C@@](O)([C@@H](OC(=O)c4ccccc4)[C@H]21)C3(C)C [Docetaxel] + N#Cc1c(O)c2c(-c3ccc(-c4ccccc4O)cc3)csc2[nH]c1=O [A769662] (first compound 0.0001 µM, partner dose 2 µM)
cleaved PARP positive nuclei fraction (501Mel): 94.9% | cleaved PARP positive nuclei fraction (A101D): 55% | cleaved PARP positive nuclei fraction (A2058): 3720% | cleaved PARP positive nuclei fraction (C32): 528% | cleaved PARP positive nuclei fraction (CBRC008): 360% | cleaved PARP positive nuclei fraction (CBRC014): 142% | cleaved PARP positive nuclei fraction (CBRC016): 244% | cleaved PARP positive nuclei fraction (CBRC017): 136%

C[C@@H](N)c1ccc(C(=O)Nc2ccnc3[nH]ccc23)cc1 + COc1cc(N2CCC(N3CCN(C)CC3)CC2)ccc1Nc1ncc(Cl)c(Nc2ccccc2S(=O)(=O)C(C)C)n1 [NVP-TAE684] (first compound 0.4 µM, partner dose 0.08 µM)
cleaved PARP positive nuclei fraction (501Mel): 117% | cleaved PARP positive nuclei fraction (A101D): 24.9% | cleaved PARP positive nuclei fraction (A2058): 73.4% | cleaved PARP positive nuclei fraction (C32): 83.9% | cleaved PARP positive nuclei fraction (CBRC008): 51.4% | cleaved PARP positive nuclei fraction (CBRC014): 104% | cleaved PARP positive nuclei fraction (CBRC016): 165% | cleaved PARP positive nuclei fraction (CBRC017): 109%

CS(=O)(=O)c1ccc(C(=O)Nc2ccc(Cl)c(-c3ccccn3)c2)c(Cl)c1 [vismodegib] + COc1cc(N2CCC(N3CCN(C)CC3)CC2)ccc1Nc1ncc(Cl)c(Nc2ccccc2S(=O)(=O)C(C)C)n1 [NVP-TAE684] (first compound 1 µM, partner dose 0.08 µM)
cleaved PARP positive nuclei fraction (501Mel): 104% | cleaved PARP positive nuclei fraction (A101D): 33.9% | cleaved PARP positive nuclei fraction (A2058): 522% | cleaved PARP positive nuclei fraction (C32): 243% | cleaved PARP positive nuclei fraction (CBRC008): 176% | cleaved PARP positive nuclei fraction (CBRC014): 102% | cleaved PARP positive nuclei fraction (CBRC016): 85.5% | cleaved PARP positive nuclei fraction (CBRC017): 61.6%

NC1(c2ccc(-c3nc4ccn5c(=O)[nH]nc5c4cc3-c3ccccc3)cc2)CCC1 + CCN(CC)CCCCNc1ncc2cc(-c3cc(OC)cc(OC)c3)c(NC(=O)NC(C)(C)C)nc2n1 [PD173074] (first compound 0.4 µM, partner dose 0.1 µM)
cleaved PARP positive nuclei fraction (501Mel): 290% | cleaved PARP positive nuclei fraction (A101D): 16.6% | cleaved PARP positive nuclei fraction (A2058): 238% | cleaved PARP positive nuclei fraction (C32): 99.3% | cleaved PARP positive nuclei fraction (CBRC008): 39.2% | cleaved PARP positive nuclei fraction (CBRC014): 71.3% | cleaved PARP positive nuclei fraction (CBRC016): 72.3% | cleaved PARP positive nuclei fraction (CBRC017): 66.6%

CCCCCCCCc1ccc(CCC(N)(CO)CO)cc1 [fingolimod] + Cc1cc([N+](=O)[O-])ccc1NS(=O)(=O)c1cc(Cl)ccc1Cl [FH535] (first compound 2 µM, partner dose 1 µM)
cleaved PARP positive nuclei fraction (501Mel): 140% | cleaved PARP positive nuclei fraction (A101D): 45.2% | cleaved PARP positive nuclei fraction (A2058): 213% | cleaved PARP positive nuclei fraction (C32): 100% | cleaved PARP positive nuclei fraction (CBRC008): 203% | cleaved PARP positive nuclei fraction (CBRC014): 135% | cleaved PARP positive nuclei fraction (CBRC016): 1770% | cleaved PARP positive nuclei fraction (CBRC017): 382%

CC(=O)O[C@@]12CO[C@@H]1C[C@H](O)[C@@]1(C)C(=O)[C@H](O)C3=C(C)[C@@H](OC(=O)[C@H](O)[C@@H](NC(=O)OC(C)(C)C)c4ccccc4)C[C@@](O)([C@@H](OC(=O)c4ccccc4)[C@H]21)C3(C)C [Docetaxel] + O=C(Nc1ccccc1)c1cc([N+](=O)[O-])ccc1Cl [GW9662] (first compound 0.0001 µM, partner dose 2 µM)
cleaved PARP positive nuclei fraction (501Mel): 199% | cleaved PARP positive nuclei fraction (A101D): 42.1% | cleaved PARP positive nuclei fraction (A2058): 5310% | cleaved PARP positive nuclei fraction (C32): 398% | cleaved PARP positive nuclei fraction (CBRC008): 323% | cleaved PARP positive nuclei fraction (CBRC014): 143% | cleaved PARP positive nuclei fraction (CBRC016): 96.5% | cleaved PARP positive nuclei fraction (CBRC017): 161%

CS(=O)(=O)c1ccc(C(=O)Nc2ccc(Cl)c(-c3ccccn3)c2)c(Cl)c1 [vismodegib] + O=S(=O)(c1ccccc1)N(CC(F)(F)F)c1ccc(C(O)(C(F)(F)F)C(F)(F)F)cc1 [T0901317] (first compound 1 µM, partner dose 1.4 µM)
cleaved PARP positive nuclei fraction (501Mel): 39.4% | cleaved PARP positive nuclei fraction (A101D): 22.4% | cleaved PARP positive nuclei fraction (A2058): 27.5% | cleaved PARP positive nuclei fraction (C32): 16.9% | cleaved PARP positive nuclei fraction (CBRC008): 50.9% | cleaved PARP positive nuclei fraction (CBRC014): 106% | cleaved PARP positive nuclei fraction (CBRC016): 24.9% | cleaved PARP positive nuclei fraction (CBRC017): 105%

Cn1cnc2c(F)c(Nc3ccc(Br)cc3Cl)c(C(=O)NOCCO)cc21 [selumetinib] + CCc1ccc(CCOc2ccc(CC3SC(=O)NC3=O)cc2)nc1 [pioglitazone] (first compound 0.015 µM, partner dose 2 µM)
cleaved PARP positive nuclei fraction (501Mel): 126% | cleaved PARP positive nuclei fraction (A101D): 57.2% | cleaved PARP positive nuclei fraction (A2058): 118% | cleaved PARP positive nuclei fraction (C32): 141% | cleaved PARP positive nuclei fraction (CBRC008): 165% | cleaved PARP positive nuclei fraction (CBRC014): 77.9% | cleaved PARP positive nuclei fraction (CBRC016): 95.9% | cleaved PARP positive nuclei fraction (CBRC017): 109%

COc1ccc(C2=N[C@@H](c3ccc(Cl)cc3)[C@@H](c3ccc(Cl)cc3)N2C(=O)N2CCNC(=O)C2)c(OC(C)C)c1 [Nutlin-3] + Cc1cc([N+](=O)[O-])ccc1NS(=O)(=O)c1cc(Cl)ccc1Cl [FH535] (first compound 0.1 µM, partner dose 1 µM)
cleaved PARP positive nuclei fraction (501Mel): 87.8% | cleaved PARP positive nuclei fraction (A101D): 31.8% | cleaved PARP positive nuclei fraction (A2058): 46.7% | cleaved PARP positive nuclei fraction (C32): 79.6% | cleaved PARP positive nuclei fraction (CBRC008): 364% | cleaved PARP positive nuclei fraction (CBRC014): 164% | cleaved PARP positive nuclei fraction (CBRC016): 962% | cleaved PARP positive nuclei fraction (CBRC017): 710%

COc1ccc(C2=N[C@@H](c3ccc(Cl)cc3)[C@@H](c3ccc(Cl)cc3)N2C(=O)N2CCNC(=O)C2)c(OC(C)C)c1 [Nutlin-3] + COc1cc2ncnc(Nc3ccc(Oc4ccccc4)cc3)c2cc1OC [SrcI1] (first compound 0.1 µM, partner dose 2 µM)
cleaved PARP positive nuclei fraction (501Mel): 82.1% | cleaved PARP positive nuclei fraction (A101D): 22.2% | cleaved PARP positive nuclei fraction (A2058): 42.3% | cleaved PARP positive nuclei fraction (C32): 29.6% | cleaved PARP positive nuclei fraction (CBRC008): 122% | cleaved PARP positive nuclei fraction (CBRC014): 117% | cleaved PARP positive nuclei fraction (CBRC016): 62.2% | cleaved PARP positive nuclei fraction (CBRC017): 114%
